Laboratory results published in doi:10.1101/2025.10.01.679907.
No constants are given. Whether binding was seen depends on the method and setting. Binding seen in cells or lysates may run through a third protein. Some binding calls cover weakened binding; strength is not graded here. For part of these data: Sequences can lack the tags named with a protein. Each block holds one substance with its values, some of them ahead of it.

Amino acid sequences for entries named in this document (tags omitted).
UniProt Q9NR09: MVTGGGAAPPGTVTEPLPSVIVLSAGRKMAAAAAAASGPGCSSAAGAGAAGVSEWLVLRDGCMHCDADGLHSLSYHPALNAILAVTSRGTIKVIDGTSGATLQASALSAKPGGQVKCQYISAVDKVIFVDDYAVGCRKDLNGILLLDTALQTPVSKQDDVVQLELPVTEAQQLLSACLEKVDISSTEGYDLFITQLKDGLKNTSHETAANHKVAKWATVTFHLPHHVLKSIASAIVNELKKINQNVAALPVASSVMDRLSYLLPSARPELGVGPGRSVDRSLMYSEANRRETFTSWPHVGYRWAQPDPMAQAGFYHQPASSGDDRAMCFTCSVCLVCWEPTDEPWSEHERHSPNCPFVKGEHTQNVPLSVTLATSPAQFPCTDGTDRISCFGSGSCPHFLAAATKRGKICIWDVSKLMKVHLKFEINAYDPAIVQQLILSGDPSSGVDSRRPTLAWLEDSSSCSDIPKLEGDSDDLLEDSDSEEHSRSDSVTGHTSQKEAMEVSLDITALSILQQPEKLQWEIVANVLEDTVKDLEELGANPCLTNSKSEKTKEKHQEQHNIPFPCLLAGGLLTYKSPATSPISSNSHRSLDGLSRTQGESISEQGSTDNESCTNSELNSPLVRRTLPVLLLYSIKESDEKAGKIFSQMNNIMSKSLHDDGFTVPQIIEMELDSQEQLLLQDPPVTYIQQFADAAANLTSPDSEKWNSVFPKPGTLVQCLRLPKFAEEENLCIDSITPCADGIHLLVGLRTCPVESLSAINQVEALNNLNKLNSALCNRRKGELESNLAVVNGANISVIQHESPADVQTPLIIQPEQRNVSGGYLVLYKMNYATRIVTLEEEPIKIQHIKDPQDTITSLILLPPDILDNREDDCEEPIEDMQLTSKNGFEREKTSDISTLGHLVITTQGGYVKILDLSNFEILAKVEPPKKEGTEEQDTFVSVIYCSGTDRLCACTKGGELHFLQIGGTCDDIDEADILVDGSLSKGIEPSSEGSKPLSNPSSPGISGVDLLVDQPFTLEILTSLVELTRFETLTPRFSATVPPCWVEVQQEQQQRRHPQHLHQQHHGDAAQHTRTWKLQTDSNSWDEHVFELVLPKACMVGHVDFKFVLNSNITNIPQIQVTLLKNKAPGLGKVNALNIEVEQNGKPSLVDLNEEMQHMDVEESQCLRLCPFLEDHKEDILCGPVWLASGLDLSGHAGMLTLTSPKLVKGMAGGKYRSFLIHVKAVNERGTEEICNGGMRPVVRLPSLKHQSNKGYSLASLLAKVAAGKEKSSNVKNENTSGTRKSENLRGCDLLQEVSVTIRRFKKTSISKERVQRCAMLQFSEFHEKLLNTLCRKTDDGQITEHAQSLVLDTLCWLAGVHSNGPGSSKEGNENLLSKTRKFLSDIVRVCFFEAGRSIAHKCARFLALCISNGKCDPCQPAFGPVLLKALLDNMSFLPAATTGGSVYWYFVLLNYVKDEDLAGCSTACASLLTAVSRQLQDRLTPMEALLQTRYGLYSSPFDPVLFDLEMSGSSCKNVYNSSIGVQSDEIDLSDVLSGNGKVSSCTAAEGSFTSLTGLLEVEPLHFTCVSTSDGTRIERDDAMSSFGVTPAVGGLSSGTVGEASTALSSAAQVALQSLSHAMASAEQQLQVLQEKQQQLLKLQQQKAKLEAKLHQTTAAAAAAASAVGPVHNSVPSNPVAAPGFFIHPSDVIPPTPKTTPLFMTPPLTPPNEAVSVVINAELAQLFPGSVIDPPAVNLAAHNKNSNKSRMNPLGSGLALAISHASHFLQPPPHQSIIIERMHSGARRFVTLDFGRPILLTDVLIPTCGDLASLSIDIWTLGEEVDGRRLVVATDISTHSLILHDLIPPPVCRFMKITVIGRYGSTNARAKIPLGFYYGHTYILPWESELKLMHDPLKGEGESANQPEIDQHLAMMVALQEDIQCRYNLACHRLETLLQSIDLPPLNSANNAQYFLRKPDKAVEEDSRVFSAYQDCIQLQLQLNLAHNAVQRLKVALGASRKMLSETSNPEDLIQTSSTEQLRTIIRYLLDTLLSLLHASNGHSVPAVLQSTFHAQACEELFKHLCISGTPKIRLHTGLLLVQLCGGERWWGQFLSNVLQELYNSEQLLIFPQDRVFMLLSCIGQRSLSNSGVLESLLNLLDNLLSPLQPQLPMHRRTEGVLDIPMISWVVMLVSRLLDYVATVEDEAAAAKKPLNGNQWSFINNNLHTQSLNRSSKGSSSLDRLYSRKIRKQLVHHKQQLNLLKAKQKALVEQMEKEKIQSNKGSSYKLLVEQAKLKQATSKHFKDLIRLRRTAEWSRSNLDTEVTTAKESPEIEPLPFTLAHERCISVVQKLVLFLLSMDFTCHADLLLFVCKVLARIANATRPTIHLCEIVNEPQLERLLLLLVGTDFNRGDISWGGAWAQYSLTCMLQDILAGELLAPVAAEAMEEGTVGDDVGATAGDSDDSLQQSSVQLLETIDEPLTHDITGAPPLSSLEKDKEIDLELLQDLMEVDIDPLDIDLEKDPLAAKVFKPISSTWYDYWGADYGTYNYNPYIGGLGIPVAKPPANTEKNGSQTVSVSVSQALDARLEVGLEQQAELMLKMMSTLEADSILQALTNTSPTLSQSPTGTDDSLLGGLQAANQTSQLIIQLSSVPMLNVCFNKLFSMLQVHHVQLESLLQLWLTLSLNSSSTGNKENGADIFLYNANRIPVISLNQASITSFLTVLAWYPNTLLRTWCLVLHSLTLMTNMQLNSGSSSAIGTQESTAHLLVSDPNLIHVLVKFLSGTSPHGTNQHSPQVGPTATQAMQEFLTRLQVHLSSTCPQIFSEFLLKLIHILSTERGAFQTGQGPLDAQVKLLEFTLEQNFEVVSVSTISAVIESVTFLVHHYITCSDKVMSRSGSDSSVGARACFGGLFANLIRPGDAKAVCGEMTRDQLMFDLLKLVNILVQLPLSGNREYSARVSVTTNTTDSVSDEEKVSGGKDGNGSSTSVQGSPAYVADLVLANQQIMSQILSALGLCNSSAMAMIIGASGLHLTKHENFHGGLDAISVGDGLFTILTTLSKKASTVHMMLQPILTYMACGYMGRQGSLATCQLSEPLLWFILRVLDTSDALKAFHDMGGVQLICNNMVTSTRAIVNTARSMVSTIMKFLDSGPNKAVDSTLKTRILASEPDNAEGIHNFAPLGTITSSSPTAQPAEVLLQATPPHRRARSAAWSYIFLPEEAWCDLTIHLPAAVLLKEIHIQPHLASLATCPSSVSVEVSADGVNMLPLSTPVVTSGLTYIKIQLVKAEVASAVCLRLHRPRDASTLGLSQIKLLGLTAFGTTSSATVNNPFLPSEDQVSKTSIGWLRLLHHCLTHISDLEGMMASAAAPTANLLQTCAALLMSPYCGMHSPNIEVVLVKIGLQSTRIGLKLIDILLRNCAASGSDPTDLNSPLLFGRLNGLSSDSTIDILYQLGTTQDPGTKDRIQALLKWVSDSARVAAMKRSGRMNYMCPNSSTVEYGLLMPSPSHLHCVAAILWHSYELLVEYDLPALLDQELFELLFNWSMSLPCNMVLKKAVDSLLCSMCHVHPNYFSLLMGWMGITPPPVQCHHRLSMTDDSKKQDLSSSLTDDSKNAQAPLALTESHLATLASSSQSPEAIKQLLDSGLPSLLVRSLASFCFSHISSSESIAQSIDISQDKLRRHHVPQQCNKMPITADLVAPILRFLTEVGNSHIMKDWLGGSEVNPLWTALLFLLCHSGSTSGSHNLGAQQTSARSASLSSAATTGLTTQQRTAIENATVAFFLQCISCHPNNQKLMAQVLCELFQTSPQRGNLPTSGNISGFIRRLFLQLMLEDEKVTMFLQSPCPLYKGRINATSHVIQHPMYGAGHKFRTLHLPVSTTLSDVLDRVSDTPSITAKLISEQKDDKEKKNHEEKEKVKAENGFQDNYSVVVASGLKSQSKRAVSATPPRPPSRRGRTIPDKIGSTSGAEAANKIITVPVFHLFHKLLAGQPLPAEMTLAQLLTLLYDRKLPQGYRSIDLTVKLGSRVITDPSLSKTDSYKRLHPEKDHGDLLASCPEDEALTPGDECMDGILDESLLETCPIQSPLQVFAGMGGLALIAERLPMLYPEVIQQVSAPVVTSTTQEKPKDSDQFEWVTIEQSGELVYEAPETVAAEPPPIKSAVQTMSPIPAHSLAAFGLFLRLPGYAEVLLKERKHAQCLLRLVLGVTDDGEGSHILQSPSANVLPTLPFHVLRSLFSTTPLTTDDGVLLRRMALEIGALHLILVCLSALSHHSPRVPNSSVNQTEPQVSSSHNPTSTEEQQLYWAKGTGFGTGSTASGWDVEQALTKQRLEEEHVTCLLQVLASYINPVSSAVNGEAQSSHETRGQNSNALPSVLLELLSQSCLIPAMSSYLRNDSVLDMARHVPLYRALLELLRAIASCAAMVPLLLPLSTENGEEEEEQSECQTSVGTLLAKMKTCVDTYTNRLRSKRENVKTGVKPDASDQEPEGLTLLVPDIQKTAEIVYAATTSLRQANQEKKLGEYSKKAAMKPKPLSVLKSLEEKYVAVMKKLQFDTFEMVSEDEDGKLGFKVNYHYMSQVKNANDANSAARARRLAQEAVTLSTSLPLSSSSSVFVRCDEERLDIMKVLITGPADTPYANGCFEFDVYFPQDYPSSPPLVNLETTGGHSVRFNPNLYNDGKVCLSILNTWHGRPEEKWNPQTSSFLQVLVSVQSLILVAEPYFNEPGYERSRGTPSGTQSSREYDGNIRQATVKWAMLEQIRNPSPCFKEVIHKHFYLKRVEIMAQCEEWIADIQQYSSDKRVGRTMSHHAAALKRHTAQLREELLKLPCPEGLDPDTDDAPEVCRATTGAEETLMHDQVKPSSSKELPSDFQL

Columns and labels:
Test in all cases: co-IP
[1] = molecular target: T1, Myc-A20 (Myc-A20-pLVX, overexpressed in DU145 cells) (UniProt P21580)
T1 sequence: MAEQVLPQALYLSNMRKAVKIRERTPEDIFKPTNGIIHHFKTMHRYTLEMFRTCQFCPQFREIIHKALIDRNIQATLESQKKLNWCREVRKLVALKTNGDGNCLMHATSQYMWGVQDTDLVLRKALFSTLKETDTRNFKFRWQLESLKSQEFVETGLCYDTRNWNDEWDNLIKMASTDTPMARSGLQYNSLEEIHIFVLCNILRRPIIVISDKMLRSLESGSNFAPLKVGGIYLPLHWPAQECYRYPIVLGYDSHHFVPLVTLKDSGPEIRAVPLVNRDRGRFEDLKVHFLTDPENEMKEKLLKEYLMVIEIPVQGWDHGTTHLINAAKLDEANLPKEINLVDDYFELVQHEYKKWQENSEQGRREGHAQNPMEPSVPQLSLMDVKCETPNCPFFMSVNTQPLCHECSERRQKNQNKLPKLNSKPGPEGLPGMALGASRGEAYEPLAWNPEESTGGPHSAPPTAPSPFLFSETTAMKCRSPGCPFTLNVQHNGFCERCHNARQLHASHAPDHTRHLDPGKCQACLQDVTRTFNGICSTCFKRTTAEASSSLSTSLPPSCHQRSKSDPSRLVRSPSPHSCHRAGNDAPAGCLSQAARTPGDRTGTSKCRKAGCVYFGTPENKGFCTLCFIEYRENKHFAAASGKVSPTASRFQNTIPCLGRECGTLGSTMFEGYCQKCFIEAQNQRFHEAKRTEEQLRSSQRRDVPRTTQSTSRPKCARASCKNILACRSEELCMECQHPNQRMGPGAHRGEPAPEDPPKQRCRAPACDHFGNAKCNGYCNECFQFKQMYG

[2] = molecular target: T2, A20, endogenous in PC3 cells (human (endogenous in PC3)) (UniProt P21580)
T2 sequence: T1 sequence

[3] = molecular target: T3, Myc-A20 (full-length A20) (UniProt P21580)
T3 sequence: T1 sequence

- binding [1]: binds
Substance: BIRC6, endogenous in DU145 cells (from UniProt Q9NR09 1-4857)

- binding [2]: binds
Substance: BIRC6, endogenous in PC3 cells (from UniProt Q9NR09 1-4857)

Substance: Flag-BIRC6 (full-length BIRC6) (from UniProt Q9NR09 1-4857)
- binding [3]: binds
